Where no end group is shown, it is not given here.

Data set [1] has as its system M1 receptor. Nature of the data set: Immunoblotting of muscarinic ACh receptor expression in middle jejunum. The note with it: 6 days, Western blot (Fig 4). The format is in vivo, piglets (Polish Landrace x Pietrain).
For data set [2], the system named is M2 receptor. The description is as above. The data set is classed as in vivo, piglets (Polish Landrace x Pietrain). The following applies: 6 days, Western blot (Fig 4).
Setting [3] is: O2: obestatin 2 μg/kg BW intra-stomach every 8 h.
[4] abbreviates: O10: obestatin 10 μg/kg BW intra-stomach every 8 h.
The mark [5] stands for this setting: O15: obestatin 15 μg/kg BW intra-stomach every 8 h.

As for FNAPFDVGIKLSGAQYQQHGRAL-NH2 [obestatin], the “cytoplasmic expression of M1 receptor (IOD, b-actin ratio)” value in data set [1] (setting [3]) is “significantly increased”; in data set [1] (setting [4]), “significantly increased”; in data set [1] (setting [5]), “no significant effect”. Moreover, the “cytoplasmic expression of M2 receptor (IOD, b-actin ratio)” value was “significantly increased” in data set [2] (setting [3]), “significantly increased” in data set [2] (setting [4]) and “no significant effect” in data set [2] (setting [5]).

These data come from paper PMC7089538, “The effects of intra-stomach obestatin administration on intestinal contractility in neonatal piglets fed milk formula” (PLoS ONE, 2020).
